From patent US20250075147A1, “FRAGRANCE AND FLAVOR COMPOSITIONS COMPRISING NEW FLAVOR AND FRAGRANCE INGREDIENTS” (priority 2023, published 2025)

How the values were obtained:
odor evaluation panel = test: Odor evaluation panel rating of odorants by Rate-All-That-Apply (RATA) method with 55-word odor lexicon, plus intensity and pleasantness; set-up: species or system human; details: for Floral: mean panelist score for odor label floral (RATA); for Fruity: mean panelist score for odor label fruity (RATA); for Spicy: mean panelist score for odor label spicy (RATA); for Sweet: mean panelist score for odor label sweet (RATA); for Pleasantness: mean panelist score for odor pleasantness
[1] = Evaluation by trained and/or certified flavor or fragrance chemists or master perfumers; categorization by commercial prospect; details: for Rating: category of commercial prospect, (A) highest > (B) > (C) > (D) lowest, (E) requires further study; for Rating (category of commercial prospect): evaluation by trained flavor or fragrance chemists or master perfumers

Structure (SMILES) | Floral (odor evaluation panel) | Fruity (odor evaluation panel) | Spicy (odor evaluation panel) | Sweet (odor evaluation panel) | Pleasantness (odor evaluation panel) | Rating [1] | Rating (category of commercial prospect) [1]
C1CCC2=NCCCN2CC1 [Compound 22, 2,3,4,6,7,8,9,10-octahydropyrimido[1,2-a]azepine] | 0.206 | 0 | 0.088 | 0 | 4.456 | (D) | 
Cc1cnc(C)[nH]1 [Compound 133, 2,5-dimethyl-1H-imidazole] | 0 | 0 | 0.094 | 0.312 | 6.638 | (D) | 
O=c1cc[nH]cc1[N+](=O)[O-] [Compound 458, 3-nitro-1H-pyridin-4-one] | 0.129 | 0.129 | 0 | 0.323 | 5.371 | (A) | 
COC(=O)c1ccc[nH]1 [Compound 526, methyl 1H-pyrrole-2-carboxylate] | 0.5 | 0.812 | 0.438 | 1.781 | 6.016 | (D) | 
O=C(O)C1(c2ccccc2)CC1 [Compound 368, 1-phenylcyclopropane-1-carboxylic acid] | 1.639 | 0 | 0.167 | 0.944 |  | (D) | 
CNCCC(O)c1ccccc1 (stereo not shown) [Compound 512, 3-(methylamino)-1-phenylpropan-1-ol] | 0 | 0.031 | 0.188 | 0.031 | 4.806 | (D) | 
CCC1=NCCO1 [Compound 660, 2-ethyl-4,5-dihydro-1,3-oxazole] | 0.118 | 0.059 | 0.206 | 0.588 | 5.035 |  | (A)
CCC(=O)CC(=O)OC [Compound 822, methyl 3-oxopentanoate] | 0.222 | 0.417 | 0.194 | 1.222 |  |  | (D)
O=Cc1ccc2ccccc2n1 [Compound 168, quinoline-2-carbaldehyde] | 0.125 | 0 | 0.594 | 0.125 | 3.25 | (D) | 
CC(C)COC(=O)CC#N [Compound 38, 2-methylpropyl 2-cyanoacetate] | 0.5 | 0.722 | 0.028 | 0.944 |  | (D) | 
O=C1C2CC3CC1CC(O)(C3)C2 [Compound 64, 5-hydroxyadamantan-2-one] | 0 | 0.028 | 0.056 | 0 |  | (D) | 
CN(C)C(C)(C)CO [Compound 265, 2-(dimethylamino)-2-methylpropan-1-ol] | 0.125 | 0.062 | 0.031 | 0.344 | 3.091 | (D) | 
O=Cc1ccc2c(c1)CCO2 [Compound 380, 2,3-dihydro-1-benzofuran-5-carbaldehyde] | 0.467 | 0.967 | 0.2 | 1.4 | 6.093 | (D) | 
CC1(C)C(=O)C(C)(C)C1=O [Compound 702, 2,2,4,4-tetramethylcyclobutane-1,3-dione] | 0.303 | 0.758 | 0.091 | 0.636 | 4.252 |  | (D)
CCOC(=O)C1CC(=O)C1 [Compound 482, ethyl 3-oxocyclobutane-1-carboxylate] | 0.333 | 1.361 | 0 | 1.167 |  | (A) | 
CC(=O)C1CCOC1=O (stereo not shown) [Compound 418, 3-acetyloxolan-2-one] | 0 | 0.059 | 0.029 | 0.5 | 3.944 | (B) | 
CC1=CC2C3CC(C=C3C)C2C1 (stereo not shown) [Compound 377, 4,9-dimethyltricyclo[5.2.1.02,6]deca-3,8-diene] | 0.129 | 0 | 0.484 | 0.903 | 4.539 | (A) | 
CC(=O)C1CC2C=CC1C2 (stereo not shown) [Compound 391, 1-(2-bicyclo[2.2.1]hept-5-enyl)ethanone] | 0.452 | 0.516 | 0.161 | 1.516 | 4.923 | (A) | 
CNCC[C@H](O)c1cccs1 [Compound 917, (1S)-3-(methylamino)-1-thiophen-2-ylpropan-1-ol] | 0 | 0 | 0.057 | 0.143 | 6.211 |  | (A)
